# In the supplement of paper PMC6411743:
# ± gives the standard deviation of the averaged measurements. The list shows a part of the results.
# Target: T1, H3BNT4 and related entries (UniProt Q99547)
# T1 sequence (whole entry): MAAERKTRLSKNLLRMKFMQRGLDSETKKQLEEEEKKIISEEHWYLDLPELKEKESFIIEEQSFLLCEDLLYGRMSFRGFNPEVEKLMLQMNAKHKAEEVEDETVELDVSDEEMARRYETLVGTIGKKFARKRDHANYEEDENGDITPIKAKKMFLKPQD
# Assay: NP40-soluble protein abundance relative to vehicle (solubility fold change) (ratio); higher = more soluble protein in presence of GTP
# Description: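 Solubility proteome profiling in Jurkat crude lysate. Lysate was treated with Mg-GTP (0.1-10 mM) for 10 min at room temperature and 3 min at 37 °C, then solubilised with 0.8% NP40 and benzonase, followed by ultracentrifugation. Proteins were quantified by TMT10 LC-MS/MS; the value is the NP40-soluble abundance relative to the NP40-processed vehicle, from 3 independent experiments.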
smiles,measurement,setting,value
Nc1nc2c(ncn2[C@@H]2O[C@H](COP(=O)(O)OP(=O)(O)OP(=O)(O)O)[C@@H](O)[C@H]2O)c(=O)[nH]1 [guanosine triphosphate],NP40-soluble protein abundance,concentration: 0.1mM,1 ± 0.047
same,NP40-soluble protein abundance,concentration: 0.5mM,1.08 ± 0.076
same,NP40-soluble protein abundance,concentration: 1mM,1.12 ± 0.11
same,NP40-soluble protein abundance,concentration: 2mM,1.25 ± 0.17
same,NP40-soluble protein abundance,concentration: 4mM,1.4 ± 0.26
same,NP40-soluble protein abundance,concentration: 6mM,1.45 ± 0.069
same,NP40-soluble protein abundance,concentration: 8mM,1.47 ± 0.23
same,NP40-soluble protein abundance,concentration: 10mM,1.54 ± 0.29
